Data reported in patent US20140314832A1.
No constants are given. Whether binding was seen depends on the method and setting. Some results given as binding are weak or reduced against the parent protein; the word gives no strength.

B1: Nb6 (VHH)
VHH: LQAQLAGQLQLVESGGGLVQPGGSLRLSCVVSGVTISNYGMTWVRQAPGKGLEWISTVYSNGHTYYADSVKGRFTISRDNAKNTLYLQMNSLKPEDTAKYYCKLTGETHRGQGTQVTVSSEPKTPKPQGPRGLAAAGAPVPYPDPLEPRAA
B2: synthesized functional polypeptide of Nb18 (without MQAQKAG at the N-end) (VHH)
VHH: QLQLVESGGGLVQPGGSLMLSCVVSGVTISNYGMTWVRQAPGKGLEWISTIYSNGHTYYADSVKGRFTASRDNAKNTLYLQMNSLKPEDTAKYYCKLTGETHRGQGTQVTVSSEPKTPKPQGPRGLAAAGAPVPYPDPLEPRAA

Experiments:
[1] = molecular target: natural SP-A in rat lung tissue (rat) (UniProt P08427); test: immunohistochemistry on rat lung tissue slices, HIS-IgG-HRP secondary
[2] = molecular target: natural SP-A in rat lung tissue (rat) (UniProt P08427); test: immunohistochemistry with synthesized functional polypeptide

binding [1]	binding [2]	Binder
binds	–	B1
–	binds	B2
